These are yes or no findings as the source states them, for the method shown. Binding seen in cells or lysates may run through a third protein. Some binding calls cover weakened binding; strength is not graded here.
Assays:
[1] = target: Titin, endogenous in mouse myocardial tissue (mouse (endogenous in myocardial tissue)) (UniProt A2ASS6); assay: co-IP; mouse myocardial tissue lysate, anti-Titin antibody or control IgG on Protein A/G magnetic beads, blot for α-MHC; WT and α-MHC K1897R KI or LDHA-cKO mice; treatments: Ang II, p300 inhibitor or activator, SIRT1 activator or inhibitor, LDHA inhibitor, NALA, VB124
[2] = target: p300 (E1A binding protein, 300 kDa), endogenous in mouse myocardial tissue (mouse (endogenous in myocardial tissue)) (UniProt B2RWS6); assay: co-IP; mouse myocardial tissue lysate, anti-p300 antibody or control IgG, blot for α-MHC; with or without Ang II
[3] = target: T1, Sirtuin 1 (SIRT1), endogenous in mouse myocardial tissue (mouse (endogenous in myocardial tissue)) (UniProt Q923E4); assay: co-IP; mouse myocardial tissue lysate, anti-SIRT1 antibody or control IgG, blot for α-MHC; with or without Ang II
T1 sequence: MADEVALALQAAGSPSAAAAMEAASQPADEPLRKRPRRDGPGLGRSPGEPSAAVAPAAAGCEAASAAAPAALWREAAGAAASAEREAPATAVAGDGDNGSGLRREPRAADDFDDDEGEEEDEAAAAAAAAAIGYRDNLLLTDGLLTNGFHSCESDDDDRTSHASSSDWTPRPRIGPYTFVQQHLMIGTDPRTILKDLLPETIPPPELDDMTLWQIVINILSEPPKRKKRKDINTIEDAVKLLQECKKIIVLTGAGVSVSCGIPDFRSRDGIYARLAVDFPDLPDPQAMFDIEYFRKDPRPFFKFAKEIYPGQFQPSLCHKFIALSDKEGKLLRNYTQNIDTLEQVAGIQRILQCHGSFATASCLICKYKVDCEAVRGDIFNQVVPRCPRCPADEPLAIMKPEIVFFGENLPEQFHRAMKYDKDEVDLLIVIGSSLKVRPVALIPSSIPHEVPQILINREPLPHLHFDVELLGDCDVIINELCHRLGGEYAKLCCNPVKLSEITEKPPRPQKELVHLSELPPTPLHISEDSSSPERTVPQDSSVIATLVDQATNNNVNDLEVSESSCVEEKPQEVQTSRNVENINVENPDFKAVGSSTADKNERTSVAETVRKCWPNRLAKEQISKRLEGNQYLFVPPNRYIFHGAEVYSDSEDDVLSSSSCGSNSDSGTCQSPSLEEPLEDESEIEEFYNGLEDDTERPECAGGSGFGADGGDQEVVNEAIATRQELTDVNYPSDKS

The chains behind the UniProt entries cited, without tags or fusion partners. Where a name states a change or a piece, a line headed by the entry shows the natural chain unless it says otherwise.
UniProt B2RWS6: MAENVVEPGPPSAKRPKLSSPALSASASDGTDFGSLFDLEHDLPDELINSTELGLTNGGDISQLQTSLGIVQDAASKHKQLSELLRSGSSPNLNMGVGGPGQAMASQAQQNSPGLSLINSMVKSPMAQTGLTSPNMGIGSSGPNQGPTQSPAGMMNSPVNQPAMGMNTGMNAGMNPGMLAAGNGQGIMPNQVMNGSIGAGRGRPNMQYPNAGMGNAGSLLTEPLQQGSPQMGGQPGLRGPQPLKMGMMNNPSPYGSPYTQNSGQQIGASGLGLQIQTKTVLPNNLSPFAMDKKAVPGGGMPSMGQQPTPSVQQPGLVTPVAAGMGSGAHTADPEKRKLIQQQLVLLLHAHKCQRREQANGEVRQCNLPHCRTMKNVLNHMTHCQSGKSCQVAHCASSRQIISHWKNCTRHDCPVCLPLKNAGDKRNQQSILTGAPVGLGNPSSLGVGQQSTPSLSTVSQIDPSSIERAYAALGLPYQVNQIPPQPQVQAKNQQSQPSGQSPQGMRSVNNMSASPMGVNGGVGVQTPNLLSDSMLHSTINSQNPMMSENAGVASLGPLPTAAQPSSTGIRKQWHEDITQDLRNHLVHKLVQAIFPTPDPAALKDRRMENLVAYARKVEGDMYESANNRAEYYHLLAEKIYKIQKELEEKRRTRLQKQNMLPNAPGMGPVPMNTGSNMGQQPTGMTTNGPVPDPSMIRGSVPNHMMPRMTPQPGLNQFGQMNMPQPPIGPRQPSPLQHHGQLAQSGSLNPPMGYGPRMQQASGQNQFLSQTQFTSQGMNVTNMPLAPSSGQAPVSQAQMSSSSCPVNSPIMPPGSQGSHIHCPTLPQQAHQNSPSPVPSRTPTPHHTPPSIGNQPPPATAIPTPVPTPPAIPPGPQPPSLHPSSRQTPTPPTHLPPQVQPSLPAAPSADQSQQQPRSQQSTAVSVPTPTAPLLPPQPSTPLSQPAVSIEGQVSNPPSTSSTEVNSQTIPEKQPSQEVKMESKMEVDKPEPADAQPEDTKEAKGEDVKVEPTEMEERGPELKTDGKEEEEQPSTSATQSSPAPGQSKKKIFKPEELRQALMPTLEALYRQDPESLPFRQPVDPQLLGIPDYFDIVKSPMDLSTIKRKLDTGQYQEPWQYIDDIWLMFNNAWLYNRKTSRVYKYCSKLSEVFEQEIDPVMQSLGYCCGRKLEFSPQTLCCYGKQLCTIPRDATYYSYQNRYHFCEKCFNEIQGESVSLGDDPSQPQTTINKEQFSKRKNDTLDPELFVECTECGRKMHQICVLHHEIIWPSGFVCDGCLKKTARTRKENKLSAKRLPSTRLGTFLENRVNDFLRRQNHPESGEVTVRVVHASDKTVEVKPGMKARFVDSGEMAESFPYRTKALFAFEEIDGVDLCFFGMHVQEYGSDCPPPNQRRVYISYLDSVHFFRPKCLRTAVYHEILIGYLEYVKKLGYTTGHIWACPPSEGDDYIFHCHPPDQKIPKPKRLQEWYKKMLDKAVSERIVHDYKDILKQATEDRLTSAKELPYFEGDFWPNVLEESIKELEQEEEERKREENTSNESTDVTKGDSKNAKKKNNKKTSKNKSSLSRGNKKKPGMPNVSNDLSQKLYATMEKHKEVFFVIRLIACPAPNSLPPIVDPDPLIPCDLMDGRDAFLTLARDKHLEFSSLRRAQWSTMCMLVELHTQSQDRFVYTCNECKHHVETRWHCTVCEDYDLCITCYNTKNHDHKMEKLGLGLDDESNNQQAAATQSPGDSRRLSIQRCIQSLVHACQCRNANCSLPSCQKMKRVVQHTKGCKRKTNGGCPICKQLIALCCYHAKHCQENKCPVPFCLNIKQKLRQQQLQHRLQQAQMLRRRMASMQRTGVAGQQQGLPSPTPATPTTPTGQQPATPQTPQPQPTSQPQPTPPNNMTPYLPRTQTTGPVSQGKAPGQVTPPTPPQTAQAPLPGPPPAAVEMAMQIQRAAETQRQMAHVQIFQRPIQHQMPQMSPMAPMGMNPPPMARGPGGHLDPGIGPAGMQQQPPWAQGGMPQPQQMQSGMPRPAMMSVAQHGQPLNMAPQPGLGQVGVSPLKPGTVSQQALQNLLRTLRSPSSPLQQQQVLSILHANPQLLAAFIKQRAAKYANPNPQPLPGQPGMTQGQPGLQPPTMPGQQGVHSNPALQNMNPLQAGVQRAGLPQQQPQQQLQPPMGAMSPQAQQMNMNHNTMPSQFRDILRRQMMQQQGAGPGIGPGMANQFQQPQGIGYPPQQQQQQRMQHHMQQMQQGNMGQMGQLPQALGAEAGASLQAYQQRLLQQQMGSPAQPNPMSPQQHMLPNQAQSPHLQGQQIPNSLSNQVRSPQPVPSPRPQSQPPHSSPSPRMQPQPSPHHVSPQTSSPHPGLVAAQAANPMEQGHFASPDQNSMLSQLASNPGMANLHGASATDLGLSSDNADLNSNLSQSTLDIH
UniProt Q02566: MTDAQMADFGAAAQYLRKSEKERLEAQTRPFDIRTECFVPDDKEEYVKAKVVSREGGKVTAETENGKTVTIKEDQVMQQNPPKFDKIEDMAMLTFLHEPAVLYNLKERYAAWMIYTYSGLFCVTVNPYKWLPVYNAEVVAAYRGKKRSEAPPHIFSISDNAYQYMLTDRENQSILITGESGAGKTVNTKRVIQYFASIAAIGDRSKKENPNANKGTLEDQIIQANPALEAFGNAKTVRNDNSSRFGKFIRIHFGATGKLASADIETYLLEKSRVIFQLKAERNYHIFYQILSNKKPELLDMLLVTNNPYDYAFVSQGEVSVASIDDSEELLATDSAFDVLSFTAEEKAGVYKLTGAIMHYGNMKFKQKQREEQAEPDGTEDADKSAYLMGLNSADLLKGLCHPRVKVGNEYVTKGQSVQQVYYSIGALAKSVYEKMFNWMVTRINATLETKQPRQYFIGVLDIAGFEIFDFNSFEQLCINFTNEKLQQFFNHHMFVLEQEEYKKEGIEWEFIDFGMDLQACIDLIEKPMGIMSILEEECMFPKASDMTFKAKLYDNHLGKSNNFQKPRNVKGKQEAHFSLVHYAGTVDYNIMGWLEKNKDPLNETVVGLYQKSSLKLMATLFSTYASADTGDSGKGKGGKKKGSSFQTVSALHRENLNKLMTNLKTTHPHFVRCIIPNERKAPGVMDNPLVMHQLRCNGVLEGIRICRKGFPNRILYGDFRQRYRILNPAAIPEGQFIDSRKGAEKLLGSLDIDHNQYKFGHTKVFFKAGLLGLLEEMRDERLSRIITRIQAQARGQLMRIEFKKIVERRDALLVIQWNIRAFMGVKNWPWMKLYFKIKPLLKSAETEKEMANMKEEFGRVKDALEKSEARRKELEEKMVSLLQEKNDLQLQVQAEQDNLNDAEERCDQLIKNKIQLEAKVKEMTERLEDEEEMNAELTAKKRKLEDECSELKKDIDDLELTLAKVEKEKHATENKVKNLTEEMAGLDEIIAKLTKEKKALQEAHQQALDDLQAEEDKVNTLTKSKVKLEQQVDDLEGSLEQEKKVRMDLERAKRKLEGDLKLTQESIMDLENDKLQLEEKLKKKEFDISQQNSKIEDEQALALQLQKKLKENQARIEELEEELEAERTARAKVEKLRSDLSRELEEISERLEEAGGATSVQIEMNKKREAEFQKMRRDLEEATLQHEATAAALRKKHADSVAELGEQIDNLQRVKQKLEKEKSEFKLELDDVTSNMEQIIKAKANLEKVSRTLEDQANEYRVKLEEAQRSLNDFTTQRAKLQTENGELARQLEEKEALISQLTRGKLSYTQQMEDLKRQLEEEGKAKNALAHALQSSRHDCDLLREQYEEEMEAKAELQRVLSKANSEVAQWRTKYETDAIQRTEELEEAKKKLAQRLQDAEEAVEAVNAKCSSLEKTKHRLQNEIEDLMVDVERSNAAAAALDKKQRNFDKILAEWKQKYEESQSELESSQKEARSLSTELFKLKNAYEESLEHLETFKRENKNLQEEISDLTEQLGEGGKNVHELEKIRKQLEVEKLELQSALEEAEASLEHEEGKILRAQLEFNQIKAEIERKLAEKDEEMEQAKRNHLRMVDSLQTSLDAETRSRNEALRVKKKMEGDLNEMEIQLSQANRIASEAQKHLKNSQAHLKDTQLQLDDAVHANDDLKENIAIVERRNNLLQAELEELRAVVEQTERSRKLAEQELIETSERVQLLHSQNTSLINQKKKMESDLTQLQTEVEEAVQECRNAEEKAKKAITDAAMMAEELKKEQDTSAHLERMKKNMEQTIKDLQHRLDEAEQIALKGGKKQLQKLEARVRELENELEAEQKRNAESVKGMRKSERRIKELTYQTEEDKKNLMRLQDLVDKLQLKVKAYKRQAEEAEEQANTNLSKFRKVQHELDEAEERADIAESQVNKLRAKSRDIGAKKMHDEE
UniProt P02563: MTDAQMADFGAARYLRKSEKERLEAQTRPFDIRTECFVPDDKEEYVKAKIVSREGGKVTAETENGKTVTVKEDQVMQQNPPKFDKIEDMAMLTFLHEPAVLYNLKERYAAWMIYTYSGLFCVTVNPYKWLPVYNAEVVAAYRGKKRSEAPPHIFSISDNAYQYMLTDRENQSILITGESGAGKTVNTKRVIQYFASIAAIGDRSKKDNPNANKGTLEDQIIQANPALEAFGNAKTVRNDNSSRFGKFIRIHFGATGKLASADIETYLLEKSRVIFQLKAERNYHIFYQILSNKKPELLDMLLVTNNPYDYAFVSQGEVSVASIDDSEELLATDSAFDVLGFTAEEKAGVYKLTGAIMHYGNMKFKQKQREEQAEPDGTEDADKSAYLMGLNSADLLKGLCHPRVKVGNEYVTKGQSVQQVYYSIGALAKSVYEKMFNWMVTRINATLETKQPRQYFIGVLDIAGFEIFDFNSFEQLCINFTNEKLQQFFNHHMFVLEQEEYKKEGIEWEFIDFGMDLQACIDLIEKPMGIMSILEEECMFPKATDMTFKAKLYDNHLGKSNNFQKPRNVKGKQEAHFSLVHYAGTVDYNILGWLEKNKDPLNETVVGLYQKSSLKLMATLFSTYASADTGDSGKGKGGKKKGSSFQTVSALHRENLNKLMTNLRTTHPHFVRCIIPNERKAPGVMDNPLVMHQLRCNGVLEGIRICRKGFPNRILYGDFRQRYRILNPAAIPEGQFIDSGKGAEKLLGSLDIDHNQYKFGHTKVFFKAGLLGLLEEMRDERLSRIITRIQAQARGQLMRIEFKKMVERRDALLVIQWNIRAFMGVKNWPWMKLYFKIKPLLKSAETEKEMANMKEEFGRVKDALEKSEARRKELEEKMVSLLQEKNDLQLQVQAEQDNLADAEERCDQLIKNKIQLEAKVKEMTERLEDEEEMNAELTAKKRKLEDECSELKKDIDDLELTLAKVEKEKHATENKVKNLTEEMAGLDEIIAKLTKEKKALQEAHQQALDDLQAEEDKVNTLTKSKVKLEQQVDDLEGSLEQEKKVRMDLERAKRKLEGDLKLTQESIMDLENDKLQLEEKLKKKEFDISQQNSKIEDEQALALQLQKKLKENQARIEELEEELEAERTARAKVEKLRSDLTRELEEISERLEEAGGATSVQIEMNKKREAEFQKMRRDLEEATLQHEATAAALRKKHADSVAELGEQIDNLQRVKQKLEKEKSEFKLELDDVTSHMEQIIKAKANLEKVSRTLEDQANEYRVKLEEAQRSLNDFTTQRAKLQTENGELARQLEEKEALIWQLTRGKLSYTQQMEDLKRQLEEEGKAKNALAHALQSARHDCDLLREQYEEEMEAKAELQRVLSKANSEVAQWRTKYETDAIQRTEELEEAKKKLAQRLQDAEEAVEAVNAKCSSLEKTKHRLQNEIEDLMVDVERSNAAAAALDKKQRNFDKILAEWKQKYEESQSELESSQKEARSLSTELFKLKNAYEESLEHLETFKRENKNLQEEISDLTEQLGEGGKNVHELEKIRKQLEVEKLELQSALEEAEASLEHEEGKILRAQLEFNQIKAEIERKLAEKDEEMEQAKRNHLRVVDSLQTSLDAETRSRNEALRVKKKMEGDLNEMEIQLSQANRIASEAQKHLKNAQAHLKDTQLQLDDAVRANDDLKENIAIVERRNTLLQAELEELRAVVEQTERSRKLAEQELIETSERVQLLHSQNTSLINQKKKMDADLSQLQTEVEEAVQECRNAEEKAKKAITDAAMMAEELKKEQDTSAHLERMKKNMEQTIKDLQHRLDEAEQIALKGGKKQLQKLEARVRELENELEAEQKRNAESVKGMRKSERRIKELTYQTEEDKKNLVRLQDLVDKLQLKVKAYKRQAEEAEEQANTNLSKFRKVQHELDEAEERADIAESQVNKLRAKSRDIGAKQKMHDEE

[4] = target: T2, SIRT1, endogenous in H9c2 cells (rat (endogenous in H9c2)); assay: co-IP; H9c2 cell lysate, anti-SIRT1 antibody or control IgG, blot for α-MHC; with or without Ang II
T2 sequence: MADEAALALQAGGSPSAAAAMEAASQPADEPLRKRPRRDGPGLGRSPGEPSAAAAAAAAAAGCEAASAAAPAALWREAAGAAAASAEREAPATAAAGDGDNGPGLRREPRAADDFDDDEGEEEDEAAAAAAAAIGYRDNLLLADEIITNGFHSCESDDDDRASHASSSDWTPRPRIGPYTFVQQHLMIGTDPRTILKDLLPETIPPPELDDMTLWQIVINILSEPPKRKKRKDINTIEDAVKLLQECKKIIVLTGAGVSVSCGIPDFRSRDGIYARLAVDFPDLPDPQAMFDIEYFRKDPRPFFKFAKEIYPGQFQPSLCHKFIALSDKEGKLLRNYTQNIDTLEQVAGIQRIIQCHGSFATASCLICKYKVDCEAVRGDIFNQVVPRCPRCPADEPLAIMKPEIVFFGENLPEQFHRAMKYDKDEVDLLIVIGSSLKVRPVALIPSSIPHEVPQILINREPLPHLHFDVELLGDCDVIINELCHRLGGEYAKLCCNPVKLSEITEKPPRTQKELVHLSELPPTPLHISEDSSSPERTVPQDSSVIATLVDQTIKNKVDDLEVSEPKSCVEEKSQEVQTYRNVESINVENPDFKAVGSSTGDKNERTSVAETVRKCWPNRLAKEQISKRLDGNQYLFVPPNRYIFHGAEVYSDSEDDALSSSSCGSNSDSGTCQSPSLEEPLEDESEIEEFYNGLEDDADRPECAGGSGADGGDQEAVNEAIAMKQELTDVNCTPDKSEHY

Substance	binding [1]	binding [2]	binding [3]	binding [4]
α-MHC K1897R, endogenous in myocardial tissue of α-MHC K1897R knock-in mice (from UniProt Q02566 1-1938)	binds	–	–	–
α-myosin heavy chain (α-MHC), wild type, endogenous in mouse myocardial tissue (from UniProt Q02566 1-1938)	binds	binds	binds	–
α-MHC, endogenous in H9c2 cells (from UniProt P02563 1-1938)	–	–	–	binds
